Results taken from PubChem BioAssay AID488840 (Broad Institute, 2010).
About 45 (3%) of roughly 1,400 compounds were called active.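 Rule for the calls: active = half-maximal dose of signal decrease from fit no higher than ten times the top valid tested dose; inconclusive = fit invalid, or curve flat with 30 to 70% inhibition; inactive = the rest.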 This is one part of the list. Results with a measured potency or affinity are listed apart.

By UniProt entry, the sequences of proteins in these tests, tags left out. Where a name states a change or a piece, a line headed by the entry shows the natural chain unless it says otherwise.
UniProt O75164: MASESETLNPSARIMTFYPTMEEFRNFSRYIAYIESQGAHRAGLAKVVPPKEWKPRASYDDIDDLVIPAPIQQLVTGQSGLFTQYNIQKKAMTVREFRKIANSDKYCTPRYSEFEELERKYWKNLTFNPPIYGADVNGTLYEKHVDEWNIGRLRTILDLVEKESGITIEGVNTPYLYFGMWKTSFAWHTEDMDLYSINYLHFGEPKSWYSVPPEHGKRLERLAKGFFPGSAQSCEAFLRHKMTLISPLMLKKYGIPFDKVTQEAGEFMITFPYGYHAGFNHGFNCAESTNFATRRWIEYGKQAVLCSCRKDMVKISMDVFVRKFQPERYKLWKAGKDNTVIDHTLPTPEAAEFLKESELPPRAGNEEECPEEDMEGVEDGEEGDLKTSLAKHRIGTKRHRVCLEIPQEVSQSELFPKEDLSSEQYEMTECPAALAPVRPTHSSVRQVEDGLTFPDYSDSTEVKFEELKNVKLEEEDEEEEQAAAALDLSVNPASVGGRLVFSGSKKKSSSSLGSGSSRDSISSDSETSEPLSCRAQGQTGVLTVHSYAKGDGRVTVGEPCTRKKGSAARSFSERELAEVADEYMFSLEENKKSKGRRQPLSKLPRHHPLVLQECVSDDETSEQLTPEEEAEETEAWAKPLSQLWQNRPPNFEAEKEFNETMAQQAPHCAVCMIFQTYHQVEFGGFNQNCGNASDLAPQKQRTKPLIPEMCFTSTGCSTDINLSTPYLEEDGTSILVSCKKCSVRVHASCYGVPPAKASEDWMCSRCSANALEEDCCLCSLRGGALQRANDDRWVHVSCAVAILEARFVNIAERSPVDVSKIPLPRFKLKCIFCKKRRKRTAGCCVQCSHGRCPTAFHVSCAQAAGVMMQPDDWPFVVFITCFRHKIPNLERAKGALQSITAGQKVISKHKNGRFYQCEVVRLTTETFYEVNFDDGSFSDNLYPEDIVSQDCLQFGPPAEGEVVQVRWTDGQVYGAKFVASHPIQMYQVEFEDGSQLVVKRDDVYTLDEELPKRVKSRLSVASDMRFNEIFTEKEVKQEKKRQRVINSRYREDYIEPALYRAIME

Molecular target: Lysine-specific demethylase 4A (Homo sapiens) (UniProt O75164)
Assay: JMJD2A histone demethylase inhibitors, dose response, selectivity assay for GASC-1 inhibitor project, biochemical, DELFIA europium, cherry-picked samples (AID 488840);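 note: europium signal reports the dimethyl H3K9 product detected by antibody so inhibitors lower it; 0% = median of neutral control wells and -100% = median of positive control wells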
Settings: GST-JMJD2A(1-420) H3K9me3 demethylation; at 6 µM (top of the series) unless noted

Activity change, negative = inhibition, inactive:
COc1cccc(-n2nnc3c(=O)n(Cc4ccccc4F)cnc32)c1 -6.03%, Cc1ccccc1-c1ccc(=O)n(CC(=O)Nc2ccc(N3CCOCC3)cc2)n1 0.554%, CCN(CCNS(=O)(=O)c1ccc2c(c1)oc(=O)n2C)c1ccccc1 -1.29%, CCOC(=O)c1nc(C)n(-c2cc(Cl)ccc2Cl)n1 -1.88%, CCCCCCc1cc2cc(-c3nnc(-c4ccccc4)o3)c(=O)oc2cc1O 5.66%, CNC[C@@H]1Oc2ccc(NC(=O)Nc3cccc4ccccc34)cc2C(=O)N([C@@H](C)CO)C[C@@H]1C 1.97%, O=C(NCC(=O)N1CCCCC1)c1sc2ccccc2c1Cl -0.136%, C[C@H](CO)N1C[C@H](C)[C@@H](CN(C)C(=O)Nc2ccc3c(c2)OCO3)Oc2c(NS(=O)(=O)c3ccc(F)cc3)cccc2C1=O -1.91%, CCN(CC)C(=O)N1CCc2ccccc2C1CN1C(=O)c2ccccc2C1=O (stereo not given) -1.77%, COc1ccc(/C=N/NC(=O)c2cc(C)on2)c2ccccc12 -2.86%, O=C(NC1(O)C(=O)c2ccccc2C1=O)c1c(Cl)cccc1Cl 5.82%, CCCC(=O)Nc1nc2c(c(=O)[nH]1)CCCC2 -2.07%, Cc1c(C(=O)Nc2ccc3c(c2)OCO3)sc2ncn(CC(=O)N3CC(C)CC(C)C3)c(=O)c12 (stereo not given) -0.463%, COc1cc(NS(=O)(=O)c2ccc(NC(=O)c3ccc(C)o3)cc2)nc(OC)n1 -1.8%, O=C(OCc1nnc(-c2ccccc2)o1)c1cc(S(=O)(=O)N2CCOCC2)c(Cl)cc1Cl 6.12%, CN1C(=O)Cc2cc(S(=O)(=O)NCCc3ccc(Cl)cc3)ccc21 -3.24%, COC(=O)[C@]1(Cc2ccccc2)N[C@H](CN(C)C(=O)Nc2ccccc2)[C@@H]2C(=O)N(C)C(=O)[C@@H]21 6.68%, CCN(CC)S(=O)(=O)c1ccc(N2CCOCC2)c(NC(=O)c2ccc3c(c2)OCCO3)c1 4.19%, COc1ccccc1/C=C1/SC(=S)N(C(C)C(=O)NC2C=CS(=O)(=O)C2)C1=O (stereo not given) -11.8%, O=C(COC(=O)c1cccc(S(=O)(=O)NCc2ccccc2)c1)Nc1ccccc1OC(F)F 0.665%, COc1cccc(C(c2c(C)[nH]n(-c3ccccc3)c2=O)c2c(C)[nH]n(-c3ccccc3)c2=O)c1O 1.69%, C[C@H](CO)N1C[C@H](C)[C@@H](CN(C)Cc2ccc(Cl)c(Cl)c2)Oc2c(NS(=O)(=O)c3cn(C)cn3)cccc2C1=O -0.723%, Cc1ccccc1C(=O)OCCCN=C1NS(=O)(=O)c2ccccc21 7.05%, CCC(C)C(NC(=O)OC(C)(C)C)C(=O)NC(C(=O)N1CCCC1C(N)=O)C(C)CC (stereo not given) 2.85%, COC(=O)C1CCN(C(=O)COC(=O)COc2ccc(C#N)cc2)CC1 -0.0304%, CCOc1cc(NC(=O)c2ccco2)c(OCC)cc1NC(=O)c1ccco1 11.3%, COc1ccc(-c2cc3c(=O)n(CC(=O)NCc4cccnc4)nc(C)n3n2)cc1 -7.08%, COc1ccc(C(=O)N2CCC(C(=O)NCc3ccccn3)CC2)cc1 8.19%, O=C(Cn1c(=O)sc2ccccc21)NCc1ccco1 -6.24%, CC(=O)c1c(Nc2ccccc2)sc(C(=O)c2ccccc2)c1C 1.35%, COc1ccc(NC(=O)c2cccc(N3C(=O)C4CC=C(C)CC4C3=O)c2)c(OC)c1 (stereo not given) -5%, COc1ccccc1OCCOCCn1cnc2ccccc2c1=O 4.73%, COc1cc(-c2nnco2)cc(OC)c1OC -8.4%, Nc1ncnc2c1ncn2[C@@H]1O[C@H](CNCC#Cc2ccccc2)[C@@H](O)[C@H]1O 4.51%, O=C(Nc1ccc(-c2csc(Nc3ccc(Cl)cc3)n2)cc1)c1ccccc1 -6.43%, O=C(CC1C[C@H](C(=O)N2CCCCC2)[C@@]2(CCc3ccccc3)c3[nH]c4ccccc4c3CCN2C1=O)NCCC1=CCCCC1 (stereo not given in full) 2.22%, O=C(NCC1CCCO1)Nc1ccccc1 (stereo not given) 4.13%, Cc1nnc(N2C(=O)C(=O)/C(=C(/O)c3ccc4c(c3)CC(C)O4)C2c2ccccc2F)s1 (stereo not given) 1.69%, O=C(O)CSc1nnc(COc2cccc3cccnc23)n1-c1cccc(C(F)(F)F)c1 -0.268%, COc1ccc(/C=C(/C(=O)NCc2ccccc2)c2ccccc2)cc1 -0.518%, CCOC(=O)c1[nH]c(CSc2nnnn2-c2ccccc2C)c(C(=O)OCC)c1C 1.13%, CCOC(=O)c1c(S(=O)(=O)N2CCN(c3ccc(F)cc3)CC2)c(C)n(C)c1C -1.22%, COc1ccc(CCNC(=O)c2cccc(NS(=O)(=O)c3ccccc3F)c2)cc1OC 5.64%, CC1(C)CC(=O)C2=C(C1)OC(N)=C(C#N)C2C#Cc1ccccc1 (stereo not given) 4.74%, CC(C)c1ccc(NC2CCCN(C(=O)CCN3CCCCC3=O)C2)cc1 (stereo not given) -4.65%, c1cc2c(cc1C1CCCCC1)c1c3n2CCCNC3CCC1 (stereo not given) -2.29%, COc1ccc(C(C(C(=O)c2ccco2)N2CCOCC2)N2CCOCC2)cc1 (stereo not given) 1.47%, COc1ccc(C(=O)NCc2nnc(SCC(=O)N3CCc4ccccc43)o2)cc1OC 0.424%, COCCNC(=S)N1CCN(C)CC1 -7.29%, C#CCOCCOCCOCCNc1nc(N2CCN(C(=O)[C@H](CCCCN)n3cc(CN)nn3)CC2)nc(N2CCN(C(=O)[C@H](CCC(=O)O)n3cc([C@@H](N)CCSC)nn3)CC2)n1 1.72%, COc1ccc(OC)c(Nc2nc(-c3cccs3)cs2)c1 4.65%, O=C1NC(=S)N/C1=C/c1cc2c(cc1[N+](=O)[O-])OCO2 3.33%, Cc1ccc(CNC(=O)CCC2CCCN(Cc3ccc4cccc(F)c4n3)C2)o1 (stereo not given) 1.48%, COc1ccc(CNCC(=O)Nc2sccc2C#N)cc1 -5.92%, O=C(NCc1ccccn1)c1ccc(OC2CCN(Cc3cccs3)CC2)cc1 -3.92%, CC(O)CNc1nc2ccccc2n1CC(=O)NC12CC3CC(CC(C3)C1)C2 (stereo not given) -6.59%, O=C(N/N=C/c1nn(-c2ccccc2)cc1-c1ccccc1)c1ccncc1 2.88%, CCN(CC)C(CNS(=O)(=O)c1ccc(Cl)cc1)c1ccccc1 (stereo not given) -0.453%, CC(=O)c1sc(NC(=O)c2ccc(C)cc2)nc1C -7.38%, CC(C)N(C(=O)[C@H]1CC(CC(=O)NCc2cccc(C(F)(F)F)c2)C(=O)N2CCc3c([nH]c4ccccc34)[C@]12C)C(C)C (stereo not given in full) 0.968%, CNc1nc2c(c(=O)[nH]c(=O)n2C)n1CCCc1ccccc1 -6.12%, Cc1sc2c(c1C)C(=O)/C(=C\Nc1ccccn1)S(=O)(=O)N2C 1.34%, COc1cccc(/C=N/Nc2nc3ccccc3[nH]2)c1O -1.33%, Cc1cc(C)c(NC(=O)CS(=O)CC(=O)Nc2ccc(F)cc2F)c(C)c1 (stereo not given) 0.628%, Cc1noc(C)c1NC(=O)N(C)C[C@H]1Oc2ccc(NC(=O)Cn3cnnn3)cc2C(=O)N([C@H](C)CO)C[C@@H]1C -8.39%, O=C(NCc1ccccc1)c1ccc2c(c1)OCCO2 3.98%, COc1cc(-c2nc(-c3cccc(C)c3)no2)cc(OC)c1OC 1.42%, O=C(CSc1nc(-c2ccco2)cc(C(F)(F)F)n1)Nc1ccc(C(=O)N2CCCCC2)cc1 0.711%, CCOC(=O)C1CCN(S(=O)(=O)c2cc3c4c(c2)C(C)C(=O)N4CCC3)CC1 (stereo not given) -4.56%, Cc1sc2nc(CN3CCOCC3)nc(NS(=O)(=O)c3cc(Cl)ccc3Cl)c2c1C -1.37%, COc1cc2[nH]c(=O)n(CCCCCC(=O)NCCCN3CCCC3=O)c(=O)c2cc1OC 1.66%, CCCn1c(SCC(=O)NNC(=O)c2ccc(C)cc2)nnc1C(C)C -1.18%, CCOc1ccc(NCc2nnc(SCC(=O)Nc3cc(C)on3)n2-c2ccccc2OC)cc1 -1.16%, Cc1ccc(S(=O)(=O)Nc2ccc3c(c2)C(=O)N([C@H](C)CO)C[C@H](C)[C@@H](CN(C)Cc2ccc(-c4ccccc4)cc2)O3)cc1 20.7%, Cc1cccc(C)c1NS(=O)(=O)c1cc2c3c(c1)CC(=O)N3CCC2 0.393%, CCn1cnc2sc(C(=O)Nc3ccc4c(c3)OCO4)c(C)c2c1=O 3.95%, Cc1sc2ncnc(NCCCO)c2c1C -0.658%, CC(C)(C)NC(=O)CSc1nc2cccnc2n1C1CCCCC1 0.463%, O=C(Nc1cccnc1)c1ccccc1Oc1ccccc1 -1.69%, CSC1=NCCN1C(=O)c1cccc(C(F)(F)F)c1 3.3%, CCOC(=O)CSc1nc2sc(C)c(C)c2c(=O)[nH]1 -5.03%, CC1=NN(c2nc(-c3ccc(C#N)cc3)cs2)C(=O)C1 4.66%, Cc1cccc(N2CC(C(=O)Nc3nnc(SCC(=O)Nc4nccs4)s3)CC2=O)c1 (stereo not given) 3.7%, CCOC(=O)c1oc2ccccc2c1COC(=O)C(C)NC(=O)c1ccco1 (stereo not given) 0.994%, CCn1c(SCC(=O)N2CCc3ccccc32)nnc1-c1ccco1 4.26%
